According to patent US20250353898A1, “SERPIN PEPTIDE DERIVATIVES AND METHODS OF USING THE SAME” (priority 2022, published 2025):
At least one compound was matched to its structure with a doubt left.

Tested on: OVA induced allergic asthma
Test: OVA induced allergic asthma mouse model, lung homogenate
Type: in vivo, mice
Conditions: compared to vehicle treated animals, p<0.005
Text: Infiltration of immune cells into the lung likely account for the increase in total protein levels in the lung.

C[C@@H]1C[C@H]2[C@@H]3CCC4=CC(=O)C=C[C@]4(C)[C@@]3(F)[C@@H](O)C[C@]2(C)[C@@]1(O)C(=O)CO [dexamethasone, reference compound]
total protein levels in the lung: significantly decreased
